No constants are given. Whether binding was seen depends on the method and setting. In cells and extracts the contact can be indirect. Here binding means that the protein was enriched with, or labelled near, the bait; the list need not be complete.

Protein sequences, listed by entry. Tags and fused reporters are not part of them. Lines headed by an entry give the natural chain unless they say otherwise; changes in a name come on top.
UniProt P96874: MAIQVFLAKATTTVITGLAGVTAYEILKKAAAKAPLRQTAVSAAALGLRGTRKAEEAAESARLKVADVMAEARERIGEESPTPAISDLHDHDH

We go through eight molecules from paper PMC13043812.

Experiment [1] concerns the target PacL1 protein fused to a C-terminal ALFA tag (M. tuberculosis) (UniProt P96874). The experiment is described as follows: proximity labelling.
Experiment [2] deals with PacL1 protein fused to an internal ALFA tag (M. tuberculosis) (UniProt P96874). Description: proximity labelling.

B1: Alkyl hydroperoxide reductase subunit C (protein, UniProt P9WQB7 1-195)
chain: MPLLTIGDQFPAYQLTALIGGDLSKVDAKQPGDYFTTITSDEHPGKWRVVFFWPKDFTFVCPTEIAAFSKLNDEFEDRDAQILGVSIDSEFAHFQWRAQHNDLKTLPFPMLSDIKRELSQAAGVLNADGVADRVTFIVDPNNEIQFVSATAGSVGRNVDEVLRVLDALQSDELCACNWRKGDPTLDAGELLKASA
Regarding B1, the binding result in experiment [1] and in experiment [2] was “binds” throughout.

B2: Rv1265 (protein, UniProt P9WM49 1-226)
chain: MVLARPDAVFAPARNRCHVSLPVNAMSLKMKVCNHVIMRHHHMHGRRYGRPGGWQQAQQPDASGAAEWFAGRLPEDWFDGDPTVIVDREEITVIGKLPGLESPEEESAARASGRVSRFRDETRPERMTIADEAQNRYGRKVSWGVEVGGERILFTHIAVPVMTRLKQPERQVLDTLVDAGVARSRSDALAWSVKLVGEHTEEWLAKLRTAMSAVDDLRAQGPDLPA
Consider B2, for which the binding entry in experiment [1] and in experiment [2] was “binds” in each case.

B3: Rv3046c (protein, UniProt I6YF16 1-124)
chain: MTKTFSHPHFFRSVLRWLQVGYPEGVPGPDRVALLSLLRSTPLTEEQIGEVVRHFTENGSPAVADRVIDRDEIAEFISEVTHHDAGPENIQRVAGILAAAGWPLAGVDVGESESGSDRAPASQG
As to B3, the binding entry in experiment [1] is given as “binds”.

B4: Rv2083 (protein, UniProt P9WLK3 1-314)
chain: MTSIESHPEQYWAAAGRPGPVPLALGPVHPGGPTLIDLLMALFGLSTNADLGGANADIEGDDTDRRAHAADAARKFSANEANAAEQMQGVGAQGMAQMASGIGGALSGALGGVMGPLTQLPQQAMQAGQGAMQPLMSAMQQAQGADGLAAVDGARLLDSIGGEPGLGSGAGGGDVGGGGAGGTTPTGYLGPPPVPTSSPPTTPAGAPTKSATMPPPGGASPASAHMGAAGMPMVPPGAMGARGEGSGQEKPVEKRLTAPAVPNGQPVKGRLTVPPSAPTTKPTDGKPVVRRRILLPEHKDFGRIAPDEKTDAGE
Consider B4, for which the binding entry in experiment [1] and in experiment [2] was “binds” throughout.

B5: CtpC, metal cation transporter P-type ATPase (protein, UniProt P9WPT5 1-718)
chain: MTLEVVSDAAGRMRVKVDWVRCDSRRAVAVEEAVAKQNGVRVVHAYPRTGSVVVWYSPRRADRAAVLAAIKGAAHVAAELIPARAPHSAEIRNTDVLRMVIGGVALALLGVRRYVFARPPLLGTTGRTVATGVTIFTGYPFLRGALRSLRSGKAGTDALVSAATVASLILRENVVALTVLWLLNIGEYLQDLTLRRTRRAISELLRGNQDTAWVRLTDPSAGSDAATEIQVPIDTVQIGDEVVVHEHVAIPVDGEVVDGEAIVNQSAITGENLPVSVVVGTRVHAGSVVVRGRVVVRAHAVGNQTTIGRIISRVEEAQLDRAPIQTVGENFSRRFVPTSFIVSAIALLITGDVRRAMTMLLIACPCAVGLSTPTAISAAIGNGARRGILIKGGSHLEQAGRVDAIVFDKTGTLTVGRPVVTNIVAMHKDWEPEQVLAYAASSEIHSRHPLAEAVIRSTEERRISIPPHEECEVLVGLGMRTWADGRTLLLGSPSLLRAEKVRVSKKASEWVDKLRRQAETPLLLAVDGTLVGLISLRDEVRPEAAQVLTKLRANGIRRIVMLTGDHPEIAQVVADELGIDEWRAEVMPEDKLAAVRELQDDGYVVGMVGDGINDAPALAAADIGIAMGLAGTDVAVETADVALANDDLHRLLDVGDLGERAVDVIRQNYGMSIAVNAAGLLIGAGGALSPVLAAILHNASSVAVVANSSRLIRYRLDR
As for B5, the binding result in experiment [1] and in experiment [2] was “binds” in each case.

B6: MoeX, molybdopterin biosynthesis protein (protein, UniProt A5U339 1-330)
chain: MIIELMRRVVGLAQGATAEVAVYGDRDRDLAERWCANTGNTLVRADVDQTGVGTLVVRRGHPPDPASVLGPDRLPGVRLWLYTNFHCNLCCDYCCVSSSPSTPHRELGAERIGRIVGEAARWGVRELFLTGGEPFLLPDIDTIIATCVKQLPTTVLTNGMVFKGRGRRALESLPRGLALQISLDSATPELHDAHRGAGTWVKAVAGIRLALSLGFRVRVAATVASPAPGELTAFHDFLDGLGIAPGDQLVRPIALEGAASQGVALTRESLVPEVTVTADGVYWHPVAATDERALVTRTVEPLTPALDMVSRLFAEQWTRAAEEAALFPCA
Take B6: the binding result in experiment [1] and in experiment [2] was “binds” each time.

B7: Arginine repressor (protein, UniProt P9WPY9 1-170)
chain: MSRAKAAPVAGPEVAANRAGRQARIVAILSSAQVRSQNELAALLAAEGIEVTQATLSRDLEELGAVKLRGADGGTGIYVVPEDGSPVRGVSGGTDRMARLLGELLVSTDDSGNLAVLRTPPGAAHYLASAIDRAALPQVVGTIAGDDTILVVAREPTTGAQLAGMFENLR
Regarding B7, the binding entry in experiment [1] is recorded as “binds”.

B8: Fumarate reductase flavoprotein subunit (protein, UniProt P9WN91 1-583)
chain: MTAQHNIVVIGGGGAGLRAAIAIAETNPHLDVAIVSKVYPMRSHTVSAEGGAAAVTGDDDSLDEHAHDTVSGGDWLCDQDAVEAFVAEAPKELVQLEHWGCPWSRKPDGRVAVRPFGGMKKLRTWFAADKTGFHLLHTLFQRLLTYSDVMRYDEWFATTLLVDDGRVCGLVAIELATGRIETILADAVILCTGGCGRVFPFTTNANIKTGDGMALAFRAGAPLKDMEFVQYHPTGLPFTGILITEAARAEGGWLLNKDGYRYLQDYDLGKPTPEPRLRSMELGPRDRLSQAFVHEHNKGRTVDTPYGPVVYLDLRHLGADLIDAKLPFVRELCRDYQHIDPVVELVPVRPVVHYMMGGVHTDINGATTLPGLYAAGETACVSINGANRLGSNSLPELLVFGARAGRAAADYAARHQKSDRGPSSAVRAQARTEALRLERELSRHGQGGERIADIRADMQATLESAAGIYRDGPTLTKAVEEIRVLQERFATAGIDDHSRTFNTELTALLELSGMLDVALAIVESGLRREESRGAHQRTDFPNRDDEHFLAHTLVHRESDGTLRVGYLPVTITRWPPGERVYGR
Regarding B8, in experiment [1], the binding result is “binds”.
